Measurements as given in PubChem BioAssay AID2685 (National Center for Advancing Translational Sciences (NCATS), 2010).
Screen size: about 320,000 compounds; about 2,100 (0.66%) were called active. Inconclusive results, whose numbers are uncertain, are shown with a selection of clear calls. Calls come from the whole dose curve; as a rule, active = well fitted inhibition curve with a large enough effect in the signal ratio, with a control signal flat (not every such curve was filed as active); inconclusive = small, poorly fitted or top-dose-only effect, or effect the other way, or a change in a side signal; inactive = flat fitted curve, though single readings scatter; the % refers to the signal ratio. Potencies beside an inconclusive call are fits to weak or partial responses and may not hold up.

Assay: qHTS Assay for Lipid Storage Modulators in Drosophila S3 Cells
Settings: BODIPY lipid droplet fluorescence, 18-24 h, cells fed with added oleic acid; lipid storage change, negative = inhibition: at 46.1 µM (top of the series) unless noted
How it was run: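 Laser-scanning cytometry quantifies lipid droplet accumulation (500–530 nm total intensity; droplet/cell object ratio) in oleic acid-fed (400 uM added) Drosophila S3 cells treated with a concentration series. 20 uM Triacsin C defined 100% inhibition.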
% is set by controls: 0 for no effect and ±100 for the full control effect; potency is the fitted concentration of half-maximal effect.

Row | Compound | lipid storage change, negative = inhibition | Potency
1 | CN(Cc1ccc(F)cc1)C(=O)c1cccc(OC2CCN(C3CCCC3)CC2)c1 | inconclusive: 7.19% | 
2 | Nc1csnc1C(=O)O | inconclusive: -10.7% | 
3 | O=S1(=O)CCOC[C@H](CC2CCCCC2)N1Cc1ccccc1 | inconclusive: -17.2% | 
4 | CC(C(=O)N1CCc2ccccc21)N1CCN(c2ccccn2)CC1 (stereo not given) |  | active: 23.1 µM
5 | Cc1cc(C)c2nc(NC(=O)c3ccc(OCC4CCCO4)cc3)sc2c1 (stereo not given) | inconclusive: -18.4% | 
6 | Cc1cccc(N(C(=O)CNC(=O)c2ccco2)C(C(=O)NC2CCCC2)c2cccnc2)c1 (stereo not given) | inconclusive: 12% | 
7 | CCC(CC)c1nnc(NC(=O)c2ccco2)s1 | inconclusive: 1.13% | 
8 | N=c1oc2ccccc2cc1C(=O)Nc1ccc(F)cc1 | inactive: 1.4% | 
9 | Cc1ccc(C(=O)N(C)c2ccc(OCC(=O)N3c4ccc(C)cc4C4CN(C)CCC43)cc2)cc1 (stereo not given) | inconclusive: 42.3% | 
10 | CCOC(=O)c1c(C)sc2c1N(C(=O)CN(CC)CC)c1cc(Cl)ccc1S2 |  | inconclusive: 29.1 µM [rising, single point]
11 | CCOC(=O)C1=C(COC(=O)/C=C/c2cc(OC)c(OC)c(OC)c2)NC(=O)NC1C (stereo not given) |  | active: 18.4 µM
12 | O=C(Nc1cccc2ncccc12)c1ccco1 |  | inconclusive: 23.1 µM [activator, partial curve]
13 | O=C(CNC(=O)c1ccc(Br)cc1)NCCc1nc2ccccc2[nH]1 | inconclusive: 35.6% | 
14 | CCCN(CCC)S(=O)(=O)c1cc(CN2C(=O)c3cccnc3C2=O)ccc1OC | inactive: 24.4% | 
15 | O=C(c1c(Cl)nc2sccn12)N(C(=O)c1c(Cl)nc2sccn12)c1ccc(Cl)cn1 | inconclusive: 14.2% | 
16 | Cc1cc(Cl)n2c(nc3ccccc32)c1C#N |  | inconclusive: 29.1 µM [cytotoxic, single point]
17 | COc1ccc(CC(NC(C)=O)C(=O)N2CCN(C(=O)Nc3ccc(Cl)cc3)CC2)cc1OC (stereo not given) | inconclusive: 27.7% | 
18 | COCCCN1C(=O)C2C(C(=O)Nc3cc(C)cc(C)c3)C3C=CC2(O3)C1C(=O)NC1CCCCC1 (stereo not given) |  | inconclusive: 29.1 µM [falling, single point]
19 | O=C(c1ccc(Br)o1)N1CCN(CCc2ccncc2)CC1 | inconclusive: -34.6% | 
20 | COc1ccc(CCNC(=O)c2ccccc2OCc2c(C)noc2C)cc1 |  | inconclusive: 5.8 µM [activator, partial curve]
21 | Cc1ccccc1NC(=O)C1Cc2ccccc2CN1C(=O)OCc1ccccc1 (stereo not given) |  | inconclusive: 3.66 µM [activator, partial curve]
22 | CC(=O)NC(NC(=S)Nc1c(C)n(C)n(-c2ccccc2)c1=O)C(Cl)(Cl)Cl (stereo not given) | inconclusive: -64% | 
23 | CN1/C(=C\C=[N+](C)c2ccccc2)C(C)(C)c2ccccc21 | inconclusive: -76.2% | 
24 | Cc1ccc(NC(=O)c2cc(N3C(=O)CCC3=O)ccc2N2CCOCC2)cc1 | inconclusive: 37.3% | 
25 | Fc1ccccc1COc1cccc(/C=N/n2cnnc2)c1 | inconclusive: 76.3% | 

A few values from above:
Value of COc1ccc(CCNC(=O)c2ccccc2OCc2c(C)noc2C)cc1 under Potency: inconclusive: 5.8 µM [activator, partial curve]
Value of Cc1cccc(N(C(=O)CNC(=O)c2ccco2)C(C(=O)NC2CCCC2)c2cccnc2)c1 (stereo not given) under lipid storage change, negative = inhibition: inconclusive: 12%

Reprinted at random: 2 records from the list, in no set order.
Row | Compound | lipid storage change, negative = inhibition | Potency
16 | Cc1cc(Cl)n2c(nc3ccccc32)c1C#N |  | inconclusive: 29.1 µM [cytotoxic, single point]
25 | Fc1ccccc1COc1cccc(/C=N/n2cnnc2)c1 | inconclusive: 76.3% | 

(next part)

Row | Compound | lipid storage change, negative = inhibition | Potency
26 | CCOC(=O)N1CCN(c2ncnc3c2oc2nc(C)c4c(c23)CC(C)(C)OC4)CC1 | inconclusive: -1.67% | 
27 | CCOc1ccc(CNC(=O)C2Cc3cc(S(=O)(=O)N4CCCC4)ccc3N2C(C)=O)cc1 (stereo not given) |  | inconclusive: 29.1 µM [activator, single point]
28 | COc1ccc(C(C)=O)cc1COc1cc(C)c(Cl)c(C)c1 | inconclusive: 7.97% | 
29 | CC12CCC(C(=O)NCc3ccccn3)(OC1=O)C2(C)C (stereo not given) | inconclusive: -66.2% | 
30 | O=C(CN1CCN(C(=O)N2CCOCC2)CC1)Nc1cc(Cl)ccc1Cl |  | inconclusive: 6.51 µM [falling, single point]
31 | Cc1ccc(C(C)C)c(OC/C(O)=C(\C#N)c2nc3ccccc3[nH]2)c1 |  | inconclusive: 0.0046 µM [rising, full curve, poor fit]
32 | COc1ccc(OC)c(N(CC(=O)NC2CCCCCC2)S(=O)(=O)c2ccc(C)cc2)c1 |  | inconclusive: 29.1 µM [falling, single point]
33 | Cc1cc(C(=O)N/N=C/c2cccc(Cl)c2Cl)no1 |  | inconclusive: 2.91 µM [activator, partial curve]
34 | O=C(NC1CCCCC1)C(c1ccccc1)N(Cc1ccco1)C(=O)c1csnn1 (stereo not given) |  | inconclusive: 6.51 µM [falling, single point]
35 | O=C(c1cc(-c2ccccc2)on1)N1CCN(Cc2ccc3c(c2)OCO3)CC1 |  | inconclusive: 13 µM [rising, partial curve, poor fit]
36 | Cc1ccc(S(=O)(=O)c2cc3c(=O)n4ccccc4nc3n(CCCN3CCOCC3)c2=N)cc1C | inconclusive: -2.46% | 
37 | CCOc1ccc(CC(C(N)=O)C(N)=O)cc1 | inconclusive: -18.7% | 
38 | CCOC(=O)c1nnc(-c2ccc(C)cc2)nc1Oc1ccccc1Cl | inconclusive: 20.7% | 
39 | CCOC(=O)c1c(-c2ccc(OC)cc2)csc1NC(=O)CCN1CCOCC1 | inconclusive: -61.6% [cytotoxic] [at 0.00295 µM] | 
40 | COc1cccc(CC(NC(C)=O)C(=O)NC2CCN(C(=O)c3ccc(Cl)cc3)CC2)c1OC (stereo not given) | inconclusive: 63.6% | 
41 | CCOc1cc(S(=O)(=O)N2CCC(C(N)=O)CC2)ccc1F | inconclusive: -9.46% | 
42 | C[C@H](NC(=O)c1ccco1)C(=O)N1CCCC1 | inconclusive: 274% | 
43 | O=C(NC1CCCC1)C1CCN(C(=O)c2ccc(Cl)cc2)CC1 |  | inconclusive: 29.1 µM [falling, single point]
44 | Cc1ccc(NC(=O)CN(C)C(=O)c2ccc(Br)o2)cc1 | inconclusive: 64.4% | 
45 | CC(=Nc1ccccc1O)c1sc2ccccc2c1O |  | active: 25.9 µM
46 | Cc1nnc(NC(=O)/C=C/c2ccco2)s1 | inconclusive: 9.54% | 
47 | NC1=NC(c2ccccc2)N=C(Nc2ccccc2)N1 (stereo not given) | inconclusive: 7.11% | 
48 | Fc1cccc(Cl)c1CSC1=NCCS1 |  | inconclusive: 29.1 µM [activator, partial curve]
49 | COc1ccc(NC(=O)c2nc(SC)ncc2Cl)cc1 | inactive: 20% | 
50 | Cc1ccc(C)c(C(=O)c2ccccc2NC(=O)c2ccccn2)c1 |  | inconclusive: 18.4 µM [activator, partial curve, poor fit]

Row | Compound | lipid storage change, negative = inhibition | Potency
51 | CC(C(=O)NC1CCCCC1)N1C(=O)C2C3C=CC(C3)C2C1=O (stereo not given) |  | active: 1.84 µM
52 | CCOc1ccc(C(=O)NC(C(=O)NCCc2ccc(S(N)(=O)=O)cc2)C(C)C)cc1 (stereo not given) | inconclusive: 74.6% | 
53 | O=C(CSc1nnc(Cc2cc(=O)[nH]c(=O)[nH]2)n1-c1ccccc1)NCC1CCCO1 (stereo not given) |  | inconclusive: 4.11 µM [falling, full curve]
54 | O=C(Nc1c2c(nn1-c1ccc([N+](=O)[O-])cc1)CS(=O)(=O)C2)C1CC1 |  | inconclusive: 20.6 µM [activator, partial curve]
55 | Cc1ccc(S(=O)(=O)Nc2ccccc2C(=O)N2CCOCC2)cc1 | inconclusive: -35.9% | 
56 | COc1ccc(NC(=S)N2CCCC2)c(OC)c1 | inconclusive: -42% [at 0.369 µM] | 
57 | CC(OC(=O)CCCc1c[nH]c2ccccc12)C(=O)Nc1ccc(S(N)(=O)=O)cc1 (stereo not given) | inconclusive: -1.12% | 
58 | C=CCN(C#N)c1nc(OC)nc(N2CCCC2)n1 |  | inconclusive: 1.16 µM [activator, full curve]
59 | CCCC(=O)N(Cc1cccnc1)c1nc2c(OC)ccc(Cl)c2s1 | inconclusive: 267% | 
60 | CC(=O)Nc1cc(-c2ccc(F)cc2)[nH]n1 | inconclusive: -23.7% | 
61 | COc1ccccc1OCCC(=O)OCC(=O)Nc1ncc(Cl)cc1Cl | inconclusive: 10.6% | 
62 | C/C(=N\Nc1ccc(S(N)(=O)=O)cc1[N+](=O)[O-])c1cccnc1 |  | inconclusive: 0.651 µM [falling, full curve, poor fit]
63 | O=C(CCNS(=O)(=O)c1ccc(Cl)cc1)Nc1ccncc1 | inconclusive: -47.7% | 
64 | C=Cc1ccc(C(=O)N2CCCC(Nc3ccc4c(c3)OCCO4)C2)cc1 (stereo not given) | inconclusive: -42% | 
65 | O=C(C1CCC1)N1CCN(c2ccc(C(F)(F)F)cc2[N+](=O)[O-])CC1 |  | active: 0.58 µM
66 | CCc1cc(C(=O)N=Nc2c(O)[nH]c3c(Br)cc(Br)cc23)c2ccccc2n1 |  | inconclusive: 20.6 µM [rising, single point]
67 | COc1ccccc1CNC(=O)COC(=O)c1ccc(C)c(S(=O)(=O)N2CCCCC2)c1 |  | inconclusive: 32.6 µM [falling, single point]
68 | O=C(NC1CCCC1)C(c1ccccc1)N(C(=O)c1csnn1)C1CCCC1 (stereo not given) | inconclusive: -45.8% | 
69 | COc1cccc(CC(=O)Nc2ccc(S(=O)(=O)N3CCOCC3)cc2)c1 |  | inconclusive: 0.731 µM [falling, full curve, poor fit]
70 | COCCN(C(=O)COC(=O)Cc1c[nH]c2ccccc12)c1c(N)n(Cc2ccccc2)c(=O)[nH]c1=O | inconclusive: 33.8% [at 0.0737 µM] | 
71 | Cc1csc(NC(=O)CSc2nnc(-c3ccoc3C)n2Cc2ccco2)n1 |  | inconclusive: 0.82 µM [activator, partial curve]
72 | O=C(O)c1ccc(N2C(=O)CC(N3CCN(c4cccc(C(F)(F)F)c4)CC3)C2=O)cc1 (stereo not given) | inconclusive: 11% | 
73 | Cc1ccc(S(=O)(=O)NC2CCCCC2)cc1C(=O)N1CCC(C(N)=O)CC1 | inconclusive: -13.3% | 
74 | CN(C)C(=O)c1cc(S(=O)(=O)N(C)C)c(Cl)cc1N1CCCC1 |  | inconclusive: 1.16 µM [falling, single point]
75 | O=C(NCc1ccccn1)c1ccc(N2CCCC2)c([N+](=O)[O-])c1 | inconclusive: 44.4% | 
